The supplement of paper PMC3334620
In all, about 33,000 sequences were measured (“E-score (-0.5 to 0.5)”: median about -0.015, highest 2% from about 0.3 on). This is one part of the list.

Molecular target: T1, Abf1 (UniProt P14164)
T1 sequence: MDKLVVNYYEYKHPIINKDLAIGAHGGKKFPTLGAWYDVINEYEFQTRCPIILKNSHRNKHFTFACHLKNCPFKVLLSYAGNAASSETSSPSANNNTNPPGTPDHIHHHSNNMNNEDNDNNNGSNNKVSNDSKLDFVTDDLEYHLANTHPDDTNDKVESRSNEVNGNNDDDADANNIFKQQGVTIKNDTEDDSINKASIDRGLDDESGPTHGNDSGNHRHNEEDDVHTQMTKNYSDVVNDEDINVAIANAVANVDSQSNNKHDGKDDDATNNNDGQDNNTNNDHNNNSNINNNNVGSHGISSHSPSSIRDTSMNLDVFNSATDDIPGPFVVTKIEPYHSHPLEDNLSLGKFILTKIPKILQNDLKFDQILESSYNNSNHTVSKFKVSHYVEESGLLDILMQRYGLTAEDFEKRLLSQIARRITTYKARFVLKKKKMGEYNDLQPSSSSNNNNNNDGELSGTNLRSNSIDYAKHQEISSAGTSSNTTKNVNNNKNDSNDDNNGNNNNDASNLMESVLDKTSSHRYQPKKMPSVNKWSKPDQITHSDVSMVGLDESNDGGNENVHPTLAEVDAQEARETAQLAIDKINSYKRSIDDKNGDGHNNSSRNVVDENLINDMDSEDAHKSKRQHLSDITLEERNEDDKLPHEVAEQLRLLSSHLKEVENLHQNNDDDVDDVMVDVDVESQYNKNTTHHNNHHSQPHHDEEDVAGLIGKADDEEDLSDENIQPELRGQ
Test: PBM E-score (8-mer binding enrichment) (E-score (-0.5 to 0.5)); higher = stronger / more preferred TF binding
Conditions: protein concentration: 200 nM; construct: GST-full length
How it was run: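 Universal all-10-mer Agilent arrays, fresh or stripped once, were converted to double-stranded form by primer extension. GST-tagged yeast transcription factors from PURExpress in vitro transcription/translation, full-length or DNA-binding domain only, were applied at about 100-200 nM and detected with fluorescent anti-GST. After masliner normalisation, the Universal PBM Analysis Suite scored each ungapped eight-base word together with its reverse complement by E-score.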

Sequence	PBM E-score
ACCTGACA	-0.0449
GGGTGTAC	-0.0838
CCGGATCC	0.0159
CCCAGTCA	-0.244
GATAAAGC	0.182
AAGCATGT	-0.0132
ACTTCCGG	-0.00584
CAGCGGTC	-0.247
ACCTGAAA	-0.0644
AAGGGAGC	-0.196
AAGCCCGT	-0.0265
CTTCAGCA	-0.126
GTCTTGAA	0.211
AAGACTAG	-0.15
ATCTTTGA	0.108
GCCGACAA	-0.0875
ACCCGATG	-0.0462
GCACAGCC	-0.204
TAAAAACA	0.239
TGGGTAAA	-0.165
CCAAACGC	-0.0153
GACTCCGA	-0.261
GAGAAATC	0.23
ACGTCTCC	0.00365

Sequence	PBM E-score
CGGCGACA	0.107
ACGTTGTG	-0.0356
AATGGGAG	-0.261
AATAAACA	0.069
AGGTGGGA	-0.192
ACCGCTGA	-0.057
GGCATATA	0.151
AATCGGTG	-0.0566
AATAGCAG	-0.332
AGGACACC	-0.149
ATTCTATC	0.127
GTTCCAAA	0.0989
CTAGGGTA	-0.272
ACCTCGAC	-0.00492
GATCATGC	0.062
ACAGCGCG	-0.0729
ATCTGTGC	-0.13
CGAGGAGA	-0.0933
CGCGCCTC	-0.14
AGTAATGA	0.143
GCCCGACC	-0.277
AGTAGATA	0.199
AAGTCAGT	-0.0904
AGGAAGTC	-0.177

17 entries from above, bar-delimited:
Sequence | PBM E-score
CCGGATCC | 0.0159
CTTCAGCA | -0.126
GTCTTGAA | 0.211
AAGACTAG | -0.15
TAAAAACA | 0.239
CCAAACGC | -0.0153
GAGAAATC | 0.23
ACGTCTCC | 0.00365
AATCGGTG | -0.0566
ATTCTATC | 0.127
CTAGGGTA | -0.272
ACCTCGAC | -0.00492
GATCATGC | 0.062
ACAGCGCG | -0.0729
ATCTGTGC | -0.13
CGAGGAGA | -0.0933
AGTAATGA | 0.143

Additional records.

Sequence	PBM E-score
AAGGCAAG	-0.115
AGTTGCCC	0.0764
ACATTGAT	0.23
GGGAAAAA	0.0859
AGCCCACC	-0.246
CACGCCAC	0.00407
AAGCACGA	0.251
CTGATTCC	-0.186
GAGGGCGA	-0.35
CAGAGGTC	-0.061
CCCGATCC	-0.177
AATAGTTG	0.037
GCATTTAC	-0.162
AAAACAAA	0.108
CGTCACGC	0.145
GCTGGAAC	-0.187
GCACGTGC	0.14
ACACCAAA	0.113
AGGTAACC	0.00136
CGGATTCC	-0.129
ATACTATA	0.137
AAAATCCG	-0.00334
GCGTCTGA	-0.202
AAAATCGA	-0.0503

Sequence	PBM E-score
CTGAGGCA	-0.217
AACGATAT	0.385
CGATGCGC	0.0746
CGTAAAAG	0.248
CAACTCAA	0.0787
CGATCTTA	0.153
ACGGTCCT	-0.0643
CGAAGAGC	0.0864
TTACGGAA	0.124
TAGTCAAA	0.12
CATTGAGC	-0.227
CCGCGTAA	-0.0337
ATGCGCTA	0.0225
CTTAAGAC	0.0704
GCGTCAAC	0.00871
CACTAAGC	0.12
AGCTTGAT	-0.0353
ATAGCAAG	-0.0758
AGTGCCGG	-0.223
AACCGTGT	0.00767
ACGAGACG	0.246
AAACCCAT	0.129
